Laboratory results: PubChem BioAssay AID1259405 (NCATS, 2018)
The deposit covers about 50,000 reagents; below is a random part of them. In the full data, about 4,000 (8%) are marked active. 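Mouse siRNA library applied to hamster cells; one well for each siRNA.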 Reagents against one gene are numbered here.

Assay: 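Mouse-designed siRNAs used to find CHO productivity engineering targets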 (primary screen)
System: Chinese hamster CHO-K1 ovary cells with stable secreted eGFP expression
Knock-down reagent: single siRNA against mouse genes, 0.8 pmol siRNA per well (2 µl of 400 nM stock)
Timing: 3 days
Detection: 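Per-well intracellular GFP measured by laser scanning cytometry, plus viability from ATP luminescence, each relative to plate median of non-targeting control wells, in %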
Direction: GFP, % of control: higher = more GFP per well, higher productivity; viability (ATP), % of control: higher = more viable cells (more ATP)
Active means: 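a knock-down is called active if GFP reaches 120% or more of non-targeting control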

no.	gene knocked down	reagent	GFP, % of control	viability (ATP), % of control	outcome
1	Syne4 (spectrin repeat containing, nuclear envelope family member 4)	1	20.9	75.2	inactive
2	Syne4 (spectrin repeat containing, nuclear envelope family member 4)	2	112	117	inactive
3	Syne4 (spectrin repeat containing, nuclear envelope family member 4)	3	124	111	active
4	Mmp16 (matrix metallopeptidase 16)	1	91.4	91.7	inactive
5	Mmp16 (matrix metallopeptidase 16)	2	60.8	58.1	inactive
6	Gtpbp10 (GTP-binding protein 10 (putative))	1	52.7	48.9	inactive
7	Gtpbp10 (GTP-binding protein 10 (putative))	2	37.2	59.7	inactive
8	Gtpbp10 (GTP-binding protein 10 (putative))	3	88.5	65.4	inactive
9	Zfp606 (zinc finger protein 606)	1	98.1	78.6	inactive
10	Zfp606 (zinc finger protein 606)	2	69.1	70.8	inactive
11	Slx1b (structure-specific endonuclease subunit SLX1B)	1	143	27	active
12	Slx1b (structure-specific endonuclease subunit SLX1B)	2	97.5	58.3	inactive
13	Slx1b (structure-specific endonuclease subunit SLX1B)	3	100	69.9	inactive
14	Kmt2b (lysine (K)-specific methyltransferase 2B)	1	145	132	active
15	Kmt2b (lysine (K)-specific methyltransferase 2B)	2	116	122	inactive
16	Kmt2b (lysine (K)-specific methyltransferase 2B)	3	94.1	99.3	inactive
17	Dmtn (dematin actin binding protein)	1	47.1	41.9	inactive
18	Dmtn (dematin actin binding protein)	2	71.3	70.5	inactive
19	Dmtn (dematin actin binding protein)	3	70.1	77.2	inactive
20	A930024E05Rik (RIKEN cDNA A930024E05 gene)	1	53	48.2	inactive
21	A930024E05Rik (RIKEN cDNA A930024E05 gene)	2	170	84.6	active
22	A930024E05Rik (RIKEN cDNA A930024E05 gene)	3	70.7	75	inactive
23	Sft2d1 (SFT2 domain containing 1)	1	68.3	73.8	inactive
24	Sft2d1 (SFT2 domain containing 1)	2	75.5	92.6	inactive
25	Sft2d1 (SFT2 domain containing 1)	3	127	93.8	active
26	Or9q2 (olfactory receptor family 9 subfamily Q member 2)	1	85	71.2	inactive
27	Or9q2 (olfactory receptor family 9 subfamily Q member 2)	2	86.6	85.2	inactive
28	Or9q2 (olfactory receptor family 9 subfamily Q member 2)	3	85.8	83.7	inactive
29	Elf4 (E74 like ETS transcription factor 4)	1	38.4	30.4	inactive
30	Elf4 (E74 like ETS transcription factor 4)	2	73	50.8	inactive
31	Elf4 (E74 like ETS transcription factor 4)	3	59.7	97.3	inactive
32	Bcl10 (B cell leukemia/lymphoma 10)	1	23.7	58.4	inactive
33	Bcl10 (B cell leukemia/lymphoma 10)	2	81.3	101	inactive
34	Bcl10 (B cell leukemia/lymphoma 10)	3	160	159	active
35	Lfng (LFNG O-fucosylpeptide 3-beta-N-acetylglucosaminyltransferase)	1	73	64.1	inactive
36	Lfng (LFNG O-fucosylpeptide 3-beta-N-acetylglucosaminyltransferase)	2	51.4	52.1	inactive
37	Lfng (LFNG O-fucosylpeptide 3-beta-N-acetylglucosaminyltransferase)	3	93.8	71.5	inactive
38	Timm44 (translocase of inner mitochondrial membrane 44)	1	96.8	81.4	inactive
39	Timm44 (translocase of inner mitochondrial membrane 44)	2	45	61.7	inactive
40	Timm44 (translocase of inner mitochondrial membrane 44)	3	49.4	41.2	inactive
41	Glrx2 (glutaredoxin 2)	1	71.4	63.4	inactive
42	Glrx2 (glutaredoxin 2)	2	110	76.8	inactive
43	Glrx2 (glutaredoxin 2)	3	85.2	87.4	inactive
44	Ednra (endothelin receptor type A)	1	101	99.2	inactive
45	Ednra (endothelin receptor type A)	2	110	50	inactive
46	Ednra (endothelin receptor type A)	3	71.8	52.1	inactive
47	Cox8a (cytochrome c oxidase subunit 8A)	1	90.1	110	inactive
48	Cox8a (cytochrome c oxidase subunit 8A)	2	86.8	66.6	inactive
49	Cox8a (cytochrome c oxidase subunit 8A)	3	61.9	104	inactive
50	Slc25a46	1	61.1	93.1	inactive
51	Slc25a46	2	54.2	101	inactive
52	Slc25a46	3	70.5	40.7	inactive
53	Vmn1r198 (vomeronasal 1 receptor 198)	1	85.4	71.4	inactive
54	Vmn1r198 (vomeronasal 1 receptor 198)	2	85.9	55.5	inactive
55	Vmn1r198 (vomeronasal 1 receptor 198)	3	124	77	active
56	Sez6 (seizure related gene 6)	1	45.9	47.1	inactive
57	Sez6 (seizure related gene 6)	2	40.6	77.4	inactive
58	Sez6 (seizure related gene 6)	3	100	90.1	inactive
59	Mc2r (melanocortin 2 receptor)	1	88.9	78	inactive
60	Mc2r (melanocortin 2 receptor)	2	57.2	74.5	inactive
61	Mc2r (melanocortin 2 receptor)	3	64.2	30.4	inactive
62	Fam117b (family with sequence similarity 117, member B)	1	95.1	75.9	inactive
63	Fam117b (family with sequence similarity 117, member B)	2	96.3	87.3	inactive
64	Fam117b (family with sequence similarity 117, member B)	3	119	111	inactive
65	Ferd3l (Fer3 like bHLH transcription factor)	1	78.4	90.8	inactive
66	Ferd3l (Fer3 like bHLH transcription factor)	2	55.9	62.4	inactive
67	Ferd3l (Fer3 like bHLH transcription factor)	3	106	95.1	inactive
68	Clec4a3 (C-type lectin domain family 4, member a3)	1	40.9	33.8	inactive
69	Clec4a3 (C-type lectin domain family 4, member a3)	2	112	78.1	inactive
70	Clec4a3 (C-type lectin domain family 4, member a3)	3	64.5	56.8	inactive
71	Rtkn2 (rhotekin 2)	1	90.8	64.2	inactive
72	Rtkn2 (rhotekin 2)	2	99.8	70.1	inactive
73	Rtkn2 (rhotekin 2)	3	61.5	65.9	inactive
74	Itga2 (integrin alpha 2)	1	74.5	69.6	inactive
75	Itga2 (integrin alpha 2)	2	113	92.9	inactive
76	H2-T3 (histocompatibility 2, T region locus 3)	1	66.1	63.4	inactive
77	H2-T3 (histocompatibility 2, T region locus 3)	2	66.7	75.6	inactive
78	H2-T3 (histocompatibility 2, T region locus 3)	3	68.8	69.5	inactive
79	H2-T3 (histocompatibility 2, T region locus 3)	4	96.2	77.4	inactive
80	H2-T3 (histocompatibility 2, T region locus 3)	5	87	73.3	inactive
81	H2-T3 (histocompatibility 2, T region locus 3)	6	79.6	67.1	inactive
82	Phkb (phosphorylase kinase beta)	1	81.2	68.2	inactive
83	Phkb (phosphorylase kinase beta)	2	119	96.8	inactive
84	Ndufaf4 (NADH:ubiquinone oxidoreductase complex assembly factor 4)	1	89.4	88.6	inactive
85	Ndufaf4 (NADH:ubiquinone oxidoreductase complex assembly factor 4)	2	102	108	inactive
86	Ndufaf4 (NADH:ubiquinone oxidoreductase complex assembly factor 4)	3	32.9	11.5	inactive
